Measurements: PubChem BioAssay AID256 (DTP/NCI, 2004)
The list does not hold the whole screen: it is rich in T/C values a quarter to a half above the control, in often repeated tests (any T/C) and in doses without a T/C. Other doses and runs of a compound stand elsewhere. T/C is the treated group as % of the vehicle group. Some entries give survivors of the animals treated and no T/C: the source holds a T/C of zero for them, seemingly a mark for toxic or unscored doses. Some doses without a T/C left all or most animals alive at the check, yet need not have been tolerated: the source hardly ever lists a survival T/C far under the control, and the zero likely stands for such cases as well. Counts of survivors are from the toxicity check (mostly the fifth day) where no day follows; animals may have died later. Schedule codes are those of the source, taken here to give the interval after Q, in days (D) or hours (H), and the number of doses after X. Where survival is the endpoint, the PubChem record calls one and a half times the control and up active, and a quarter to a half above the control has no call in these data; cut-offs in other NCI protocols can differ. Some entries were tested several times; their values stand side by side, smallest first. Some T/C values are followed by the survivors on the day toxicity was checked, most often the fifth; without a count, all were alive then.

Tested on: CD2F1 mice, L1210 leukemia ip, survival T/C
Assay: NCI In Vivo Anticancer Drug Screen. Data for tumor model L1210 Leukemia (intraperitoneal) in CD2F1 (CDF1) mice
Details: higher T/C = longer survival
Procedure, shortened: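 Compound-dosed mice with transplantable tumor versus matched vehicle controls; endpoint ratio T/C reported.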

[1] = T/C endpoint: mean survival time, dose: 400.0 mg/kg/injection, schedule: Q04DX003 (ip), vehicle: saline with Tween-80
[2] = T/C endpoint: mean survival time, dose: 100.0 mg/kg/injection, schedule: Q04DX003 (ip), vehicle: saline with Tween-80
[3] = T/C endpoint: mean survival time, dose: 200.0 mg/kg/injection, schedule: Q04DX003 (ip), vehicle: saline with Tween-80

BrCc1ccccc1C[P+](c1ccccc1)(c1ccccc1)c1ccccc1
survivor count (T/C endpoint: mean survival time, dose: 12.5 mg/kg/injection, schedule: Q01DX009 (ip), vehicle: saline sonified): 3 of 6
survivor count (T/C endpoint: mean survival time, dose: 25.0 mg/kg/injection, schedule: Q01DX009 (ip), vehicle: saline sonified): 3 of 6
survivor count (T/C endpoint: mean survival time, dose: 50.0 mg/kg/injection, schedule: Q04DX003 (ip), vehicle: saline sonified): 1 of 6
survivor count (T/C endpoint: mean survival time, dose: 100.0 mg/kg/injection, schedule: Q04DX003 (ip), vehicle: saline sonified): 0 of 6

NC(=S)N/N=C/c1ccc(OC(=O)COc2ccc(Cl)cc2)cn1
T/C (T/C endpoint: mean survival time, dose: 200.0 mg/kg/injection, schedule: Q01DX009 (ip), vehicle: saline with Tween-80): 126 % of control
T/C (T/C endpoint: mean survival time, dose: 200.0 mg/kg/injection, schedule: Q04DX002 (ip), vehicle: saline with Tween-80): 130 % of control
T/C (T/C endpoint: mean survival time, dose: 400.0 mg/kg/injection, schedule: Q01DX001 (ip), vehicle: saline with Tween-80): 130 % of control
T/C (T/C endpoint: mean survival time, dose: 400.0 mg/kg/injection, schedule: Q04DX002 (ip), vehicle: saline with Tween-80): 130 and 149 % of control
survivor count (T/C endpoint: mean survival time, dose: 450.0 mg/kg/injection, schedule: Q01DX009 (ip), vehicle: saline with Tween-80): 8 of 10
T/C (T/C endpoint: mean survival time, dose: 600.0 mg/kg/injection, schedule: Q01DX001 (ip), vehicle: saline with Tween-80): 140 % of control
T/C (T/C endpoint: mean survival time, dose: 800.0 mg/kg/injection, schedule: Q04DX002 (ip), vehicle: saline with Tween-80): 141 % of control
T/C (T/C endpoint: median survival time, dose: 25.0 mg/kg/injection, schedule: Q01DX009 (ip), vehicle: saline with Tween-80): 126 % of control
T/C (T/C endpoint: median survival time, dose: 25.0 mg/kg/injection, schedule: Q01DX009 (ip), vehicle: saline): 140 % of control
T/C (T/C endpoint: median survival time, dose: 50.0 mg/kg/injection, schedule: Q01DX009 (ip), vehicle: saline with Tween-80): 146 % of control
T/C (T/C endpoint: median survival time, dose: 59.0 mg/kg/injection, schedule: Q01DX009 (ip), vehicle: saline with Tween-80): 147 % of control
T/C (T/C endpoint: median survival time, dose: 400.0 mg/kg/injection, schedule: Q01DX009 (ip), vehicle: saline with Tween-80): 143 % of control [5 of 6 alive]
survivor count (T/C endpoint: median survival time, dose: 450.0 mg/kg/injection, schedule: Q01DX009 (ip), vehicle: saline with Tween-80): 5 of 6

CCCCC(=O)NN
survivor count (T/C endpoint: mean survival time, dose: 100.0 mg/kg/injection, schedule: Q01DX009 (ip), vehicle: saline with Tween-80): 5 of 6

CCOP(=O)(OCC)ON1C(=O)c2cccc3cccc(c23)C1=O
survivor count (T/C endpoint: mean survival time, dose: 6.25 mg/kg/injection, schedule: Q01DX009 (ip), vehicle: Klucel (hydroxypropylcellulose) (HPC)): 3 of 3
survivor count (T/C endpoint: mean survival time, dose: 12.5 mg/kg/injection, schedule: Q01DX009 (ip), vehicle: Klucel (hydroxypropylcellulose) (HPC)): 3 of 3

CC#CS(=O)(=O)C(C)(C)C
survivor count [1]: 5 of 6

CC(C)OC(=O)Oc1cccs1
survivor count [2]: 6 of 6
survivor count [3]: 0 of 6
survivor count [1]: 0 of 6

Cc1cc(=O)n(Cc2ccccc2)n1-c1ccccc1
survivor count [3]: 3 of 6
survivor count [1]: 2 of 6

NNC(=O)c1cccc[n+]1[O-]
survivor count (T/C endpoint: mean survival time, dose: 200.0 mg/kg/injection, schedule: Q01DX001 (ip), vehicle: water): 0 of 6
survivor count (T/C endpoint: mean survival time, dose: 400.0 mg/kg/injection, schedule: Q01DX001 (ip), vehicle: water): 0 of 6
survivor count (T/C endpoint: mean survival time, dose: 800.0 mg/kg/injection, schedule: Q01DX001 (ip), vehicle: water): 0 of 6

COc1cc(NC(=O)CCl)ccc(=O)c1
survivor count [2]: 5 of 6
survivor count [3]: 0 of 6
survivor count [1]: 0 of 6

[CH3][Sn]1([CH3])[O]C2C(CO)OC(n3cnc4c(N)ncnc43)C2[O]1 (stereo not given)
survivor count (T/C endpoint: mean survival time, dose: 100.0 mg/kg/injection, schedule: Q01DX005 (ip), vehicle: other): 0 of 6
survivor count (T/C endpoint: mean survival time, dose: 200.0 mg/kg/injection, schedule: Q01DX005 (ip), vehicle: other): 0 of 6

CCN(CC)Cc1cc(Nc2cc(C)nc(/N=C(\N)Nc3cc(Cl)cc(Cl)c3)n2)ccc1O
survivor count (T/C endpoint: mean survival time, dose: 400.0 mg/kg/injection, schedule: Q01DX001 (ip), vehicle: Klucel (hydroxypropylcellulose) (HPC)): 1 of 6
